The list does not hold the whole screen: it gathers tests that were run many times, whatever their T/C, doses with no T/C, and many T/C values between a quarter and a half above the control. Other doses and runs of a compound stand elsewhere. T/C gives the treated animals as a percentage of the vehicle group. Some entries give survivors of the animals treated and no T/C: the source holds a T/C of zero for them, seemingly a mark for toxic or unscored doses. Some doses without a T/C left all or most animals alive at the check, yet need not have been tolerated: the source hardly ever lists a survival T/C far under the control, and the zero likely stands for such cases as well. Survivors were counted at the toxicity check, usually on the fifth day, unless a day is given; later deaths do not show. Schedule codes are those of the source, read here as Q, the interval in days (D) or hours (H), X, the number of doses. Where survival is the endpoint, the PubChem record calls one and a half times the control and up active, and a quarter to a half above the control has no call in these data; cut-offs in other NCI protocols can differ. Brackets with × say how often a value occurs here. Some doses were run more than once; the values are given in rising order. Some T/C values are followed by the survivors on the day toxicity was checked, most often the fifth; without a count, all were alive then.

For 25 compounds, T/C and survivor count results are on record in PubChem BioAssay AID328 (DTP/NCI, 2004).

The experiment relates to BDF1 mice, P388 leukemia ip, median survival T/C. The experiment can be described thus: NCI In Vivo Anticancer Drug Screen. Data for tumor model P388 Leukemia (intraperitoneal) in B6D2F1 (BDF1) mice. Particulars: T/C endpoint: median survival time, higher T/C = longer survival. In a few lines: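 Read-out is survival of treated animals expressed relative to the vehicle group, as a T/C ratio.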

Setting [1] is: dose: 100.0 mg/kg/injection, schedule: Q01DX009 (ip), vehicle: water.
[2] abbreviates: dose: 200.0 mg/kg/injection, schedule: Q04DX003 (ip), vehicle: water.
[3] abbreviates: dose: 100.0 mg/kg/injection, schedule: Q01DX009 (ip), vehicle: saline with Tween-80.
The mark [4] stands for this setting: dose: 100.0 mg/kg/injection, schedule: Q04DX003 (ip), vehicle: saline with Tween-80.
Where [5] appears, read: dose: 200.0 mg/kg/injection, schedule: Q04DX003 (ip), vehicle: saline with Tween-80.
[6] abbreviates: dose: 400.0 mg/kg/injection, schedule: Q04DX003 (ip), vehicle: saline with Tween-80.
[7] abbreviates: dose: 6.25 mg/kg/injection, schedule: Q01DX009 (ip), vehicle: water.
Setting [8] is: dose: 50.0 mg/kg/injection, schedule: Q04DX003 (ip), vehicle: saline with Tween-80.
The mark [9] stands for this setting: dose: 200.0 mg/kg/injection, schedule: Q01DX009 (ip), vehicle: saline with Tween-80.
Where [10] appears, read: dose: 200.0 mg/kg/injection, schedule: Q04DX003 (ip), vehicle: saline.

`Nc1nc(=S)c2[nH]cnc2[nH]1`: the T/C is 127, 138, 140 % of control (dose: 1.2 mg/kg/injection, schedule: Q01DX009 (ip), vehicle: alkali diluted with saline); 131 % of control (dose: 1.25 mg/kg/injection, schedule: Q01DX010 (ip), vehicle: other); 127 % of control (dose: 1.25 mg/kg/injection, schedule: Q01DX010 (ip), vehicle: saline); 137 and 138 % of control (2×) (dose: 1.8 mg/kg/injection, schedule: Q01DX009 (ip), vehicle: alkali diluted with saline); 131 % of control (dose: 2.5 mg/kg/injection, schedule: Q01DX010 (ip), vehicle: other). The survivor count is, setting by setting: (dose: 2.5 mg/kg/injection, schedule: Q01DX010 (ip), vehicle: saline) 6 of 6; (dose: 5.0 mg/kg/injection, schedule: Q01DX010 (ip), vehicle: saline) 6 of 6; (dose: 10.0 mg/kg/injection, schedule: Q01DX010 (ip), vehicle: other) 6 of 6; (dose: 10.0 mg/kg/injection, schedule: Q01DX010 (ip), vehicle: saline) 6 of 6.

On to `NCCCn1c2ccccc2c2cnccc21`, for which the survivor count is, setting by setting: (dose: 50.0 mg/kg/injection, schedule: Q01DX009 (ip), vehicle: water) 3 of 6; under setting [1], 0 of 6; under setting [2], 0 of 6.

For `Clc1ccc(-c2cc(=[N+]3CCC4(CC3)SSC3(CC[N+](=c5cc(-c6ccc(Cl)cc6)ss5)CC3)S4)ss2)cc1` (stereo not drawn), under setting [1], the T/C is 128 % of control.

Take `O=S(=O)(O)c1c(Cl)c(Cl)c(Cl)c(Cl)c1Cl`: for the setting “dose: 400.0 mg/kg/injection, schedule: Q04DX003 (ip), vehicle: suspension in saline”, the survivor count is on record as 2 of 6.

For `C(=C\C1CC2CCCN2O1)/c1ccccc1` (stereo not drawn), under setting [3], the T/C was 136 % of control.

As to `C[n+]1cccc(C2=CCCC2)c1`, the survivor count is, setting by setting: under setting [4], 0 of 6; under setting [5], 0 of 6; under setting [6], 0 of 6; (dose: 600.0 mg/kg/injection, schedule: Q04DX003 (ip), vehicle: saline with Tween-80) 0 of 6.

In the case of `O=C1c2ccccc2C(=O)N1c1cc(OCc2ccccc2)cc(OCc2ccccc2)c1`, under setting [7], the T/C was 134 % of control and the survivor count is recorded as 5 of 6. Further, under setting [1], the survivor count is on record as 6 of 6.

As to `N#Cc1nc2nc(C(F)(F)F)[nH]c2nc1C#N`, the survivor count (dose: 6.25 mg/kg/injection, schedule: Q01DX009 (ip), vehicle: saline with Tween-80) is recorded as 6 of 6; the survivor count (dose: 25.0 mg/kg/injection, schedule: Q01DX009 (ip), vehicle: saline with Tween-80) was 3 of 6; the survivor count under setting [8] was 5 of 6; the survivor count under setting [4] is 2 of 6.

Regarding `CCCCCCCCS.[Ni]`, the survivor count reads like this: (dose: 200.0 mg/kg/injection, schedule: Q04DX003 (ip), vehicle: Klucel (hydroxypropylcellulose) (HPC)) 3 of 6; (dose: 400.0 mg/kg/injection, schedule: Q01DX001 (ip), vehicle: Klucel (hydroxypropylcellulose) (HPC)) 1 of 6; (dose: 400.0 mg/kg/injection, schedule: Q04DX003 (ip), vehicle: Klucel (hydroxypropylcellulose) (HPC)) 0 of 6.

For `OCC12CCCCC1CC1(CC2)OCCO1` (stereo not drawn), the survivor count (dose: 200.0 mg/kg/injection, schedule: Q01DX009 (ip), vehicle: saline) is recorded as 6 of 6.

Regarding `CC(=O)Oc1ccc(N2C(=O)C=CC2=O)cc1`, the survivor count (dose: 21.0 mg/kg/injection, schedule: Q04DX003 (ip), vehicle: Klucel (hydroxypropylcellulose) (HPC)) is listed as 2 of 6.

Regarding `CCOC(N)=O`, the survivor count is, setting by setting: (dose: 125.0 mg/kg/injection, schedule: Q01DX010 (ip), vehicle: saline) 6 of 6; (dose: 500.0 mg/kg/injection, schedule: Q01DX010 (ip), vehicle: saline) 6 of 6; (dose: 1000.0 mg/kg/injection, schedule: Q01DX010 (ip), vehicle: saline) 6 of 6. Further, the T/C (dose: 250.0 mg/kg/injection, schedule: Q01DX010 (ip), vehicle: saline) is 126 % of control.

Turning to `CC(=O)OCc1c(COC(C)=O)c(-c2ccccc2)n2c1CCC2`, the T/C by setting is: (dose: 12.5 mg/kg/injection, schedule: Q01DX009 (ip), vehicle: Klucel (hydroxypropylcellulose) (HPC)) 126 % of control; (dose: 25.0 mg/kg/injection, schedule: Q01DX009 (ip), vehicle: Klucel (hydroxypropylcellulose) (HPC)) 133 % of control.

Regarding `CC(=O)OC1(CSc2ccccc2)CCCCC1`, the T/C is, setting by setting: under setting [3], 141 % of control; under setting [9], 129 % of control.

As to `Clc1cc(Cl)c2c(c1)COCO2`, the survivor count (dose: 400.0 mg/kg/injection, schedule: Q01DX009 (ip), vehicle: Klucel (hydroxypropylcellulose) (HPC)) is listed as 0 of 6.

On to `Nc1ncc([N+](=O)[O-])c(Cl)n1`, for which the survivor count under setting [9] is on record as 6 of 6.

With `CC1(C)N=C(N)N=C(N)N1c1ccc2ccccc2c1`, the T/C by setting is: (dose: 25.0 mg/kg/injection, schedule: Q01DX009 (ip), vehicle: saline) 135 % of control; (dose: 33.0 mg/kg/injection, schedule: Q01DX009 (ip), vehicle: saline) 131 and 145 % of control; (dose: 50.0 mg/kg/injection, schedule: Q01DX009 (ip), vehicle: saline) 145 % of control (2×). The survivor count (dose: 75.0 mg/kg/injection, schedule: Q01DX009 (ip), vehicle: saline) was 0 of 6; the survivor count (dose: 100.0 mg/kg/injection, schedule: Q04DX003 (ip), vehicle: saline) is given as 3 of 6; the survivor count under setting [10] is given as 2 of 6.

Consider `CC1=C(C)CC2C(=O)C=CC(=O)C2C1` (stereo not drawn), for which the survivor count reads like this: (dose: 200.0 mg/kg/injection, schedule: Q01DX009 (ip), vehicle: water) 5 of 6; under setting [2], 6 of 6; (dose: 400.0 mg/kg/injection, schedule: Q04DX003 (ip), vehicle: water) 0 of 6.

Take `C=C1C(=O)OC2/C=C(\C)CC(O)/C=C(\C)CC(O)C12` (stereo not drawn): the T/C by setting is: (dose: 100.0 mg/kg/injection, schedule: Q01DX001 (ip), vehicle: saline with Tween-80) 125 % of control; (dose: 200.0 mg/kg/injection, schedule: Q01DX001 (ip), vehicle: saline with Tween-80) 131 % of control [5 of 6 alive]. Further, the survivor count (dose: 400.0 mg/kg/injection, schedule: Q01DX001 (ip), vehicle: saline with Tween-80) is on record as 1 of 6.

`Cc1nc2c(sc(=N)n2-c2ccccc2)c(=O)[nH]1`: the survivor count is recorded as 3 of 6 under setting [3] and 0 of 6 under setting [9].

For `O=C1NC(=O)C(c2ccc(C(F)(F)F)cc2)(c2ccc(C(F)(F)F)cc2)N1`, the survivor count reads like this: under setting [3], 5 of 6; under setting [9], 2 of 6; (dose: 400.0 mg/kg/injection, schedule: Q01DX009 (ip), vehicle: saline with Tween-80) 0 of 6.

For the compound `CCC[CH2][Sn]1([CH2]CCC)[O]C(=O)C[S]1`, the T/C was 127 % of control (dose: 3.13 mg/kg/injection, schedule: Q04DX003 (ip), vehicle: saline with Tween-80) and 133 % of control (dose: 4.5 mg/kg/injection, schedule: Q04DX003 (ip), vehicle: saline with Tween-80).

As for `CSC(N)=Nc1cccc2c1CCCC2`, under setting [10], the survivor count is reported as 6 of 6.

Take `CC1([CH2][Hg][I])CS(=O)(=O)CC(C)([CH2][Hg][I])O1` (stereo not drawn): the survivor count by setting is: (dose: 20.0 mg/kg/injection, schedule: Q01DX010 (ip), vehicle: carboxymethylcellulose (CMC)) 5 of 6; (dose: 40.0 mg/kg/injection, schedule: Q01DX010 (ip), vehicle: carboxymethylcellulose (CMC)) 3 of 6; (dose: 80.0 mg/kg/injection, schedule: Q01DX010 (ip), vehicle: carboxymethylcellulose (CMC)) 0 of 6.

`CC(=O)Nc1ncc(Sc2ccc([N+](=O)[O-])cc2)s1`: the survivor count is reported as 0 of 6 under setting [8], 0 of 6 under setting [4], 0 of 6 under setting [5] and 0 of 6 under setting [6].
